From the supplement of paper PMC10849652
The other results are listed elsewhere or left out.

Protein sequences, listed by entry. Tags and fused reporters are not part of them. Lines headed by an entry give the natural chain unless they say otherwise; changes in a name come on top.
UniProt Q9H479: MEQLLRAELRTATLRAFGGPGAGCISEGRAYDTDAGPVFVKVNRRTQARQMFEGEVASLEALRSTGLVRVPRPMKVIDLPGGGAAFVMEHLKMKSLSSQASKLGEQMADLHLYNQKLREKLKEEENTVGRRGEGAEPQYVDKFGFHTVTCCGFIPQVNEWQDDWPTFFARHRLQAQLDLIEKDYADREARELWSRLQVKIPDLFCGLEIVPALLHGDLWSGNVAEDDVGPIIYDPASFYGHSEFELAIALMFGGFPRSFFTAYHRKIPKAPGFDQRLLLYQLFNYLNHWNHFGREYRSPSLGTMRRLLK
UniProt Q9UK73, whole entry, looked up: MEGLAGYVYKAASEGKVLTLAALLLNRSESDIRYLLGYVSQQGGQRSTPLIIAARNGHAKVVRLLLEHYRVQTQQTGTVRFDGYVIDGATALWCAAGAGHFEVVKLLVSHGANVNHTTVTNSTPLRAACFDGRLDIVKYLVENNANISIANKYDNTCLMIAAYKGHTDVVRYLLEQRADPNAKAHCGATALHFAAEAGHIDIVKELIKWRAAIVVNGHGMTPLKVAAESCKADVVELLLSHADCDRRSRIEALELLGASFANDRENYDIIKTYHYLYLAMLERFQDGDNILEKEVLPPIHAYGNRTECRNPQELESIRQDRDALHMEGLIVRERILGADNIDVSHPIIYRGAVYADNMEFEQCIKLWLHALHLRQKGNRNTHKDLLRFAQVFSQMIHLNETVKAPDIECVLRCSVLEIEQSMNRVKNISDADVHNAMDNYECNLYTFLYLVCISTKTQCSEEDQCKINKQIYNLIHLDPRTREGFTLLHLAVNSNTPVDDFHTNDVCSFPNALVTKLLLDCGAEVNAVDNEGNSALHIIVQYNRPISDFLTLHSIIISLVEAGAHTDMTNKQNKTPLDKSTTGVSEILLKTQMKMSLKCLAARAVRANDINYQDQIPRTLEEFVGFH
UniProt Q9HA64: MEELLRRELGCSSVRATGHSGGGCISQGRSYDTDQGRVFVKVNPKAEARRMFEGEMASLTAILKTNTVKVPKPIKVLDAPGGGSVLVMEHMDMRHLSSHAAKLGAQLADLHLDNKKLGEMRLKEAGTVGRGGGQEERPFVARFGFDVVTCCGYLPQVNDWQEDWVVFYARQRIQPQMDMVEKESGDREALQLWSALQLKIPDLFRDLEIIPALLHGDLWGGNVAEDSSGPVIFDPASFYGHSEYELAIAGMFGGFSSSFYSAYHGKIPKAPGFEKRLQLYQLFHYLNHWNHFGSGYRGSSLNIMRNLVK
UniProt P10109: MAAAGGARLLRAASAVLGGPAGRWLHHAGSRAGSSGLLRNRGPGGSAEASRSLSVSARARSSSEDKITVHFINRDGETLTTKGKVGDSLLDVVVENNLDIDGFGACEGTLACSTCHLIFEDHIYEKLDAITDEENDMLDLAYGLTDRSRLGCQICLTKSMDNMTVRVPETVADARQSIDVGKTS
UniProt Q14254: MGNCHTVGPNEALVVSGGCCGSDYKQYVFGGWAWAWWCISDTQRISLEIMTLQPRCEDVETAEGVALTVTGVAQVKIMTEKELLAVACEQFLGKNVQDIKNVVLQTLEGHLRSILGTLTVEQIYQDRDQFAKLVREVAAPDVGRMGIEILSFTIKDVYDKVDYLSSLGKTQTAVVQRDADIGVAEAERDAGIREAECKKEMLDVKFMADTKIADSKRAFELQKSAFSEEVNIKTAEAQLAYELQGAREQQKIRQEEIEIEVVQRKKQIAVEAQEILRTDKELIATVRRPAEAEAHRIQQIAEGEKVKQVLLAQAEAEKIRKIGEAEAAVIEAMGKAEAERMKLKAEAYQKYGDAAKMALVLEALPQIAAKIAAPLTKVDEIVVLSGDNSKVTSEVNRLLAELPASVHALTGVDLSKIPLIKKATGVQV
UniProt Q14315, whole entry, looked up: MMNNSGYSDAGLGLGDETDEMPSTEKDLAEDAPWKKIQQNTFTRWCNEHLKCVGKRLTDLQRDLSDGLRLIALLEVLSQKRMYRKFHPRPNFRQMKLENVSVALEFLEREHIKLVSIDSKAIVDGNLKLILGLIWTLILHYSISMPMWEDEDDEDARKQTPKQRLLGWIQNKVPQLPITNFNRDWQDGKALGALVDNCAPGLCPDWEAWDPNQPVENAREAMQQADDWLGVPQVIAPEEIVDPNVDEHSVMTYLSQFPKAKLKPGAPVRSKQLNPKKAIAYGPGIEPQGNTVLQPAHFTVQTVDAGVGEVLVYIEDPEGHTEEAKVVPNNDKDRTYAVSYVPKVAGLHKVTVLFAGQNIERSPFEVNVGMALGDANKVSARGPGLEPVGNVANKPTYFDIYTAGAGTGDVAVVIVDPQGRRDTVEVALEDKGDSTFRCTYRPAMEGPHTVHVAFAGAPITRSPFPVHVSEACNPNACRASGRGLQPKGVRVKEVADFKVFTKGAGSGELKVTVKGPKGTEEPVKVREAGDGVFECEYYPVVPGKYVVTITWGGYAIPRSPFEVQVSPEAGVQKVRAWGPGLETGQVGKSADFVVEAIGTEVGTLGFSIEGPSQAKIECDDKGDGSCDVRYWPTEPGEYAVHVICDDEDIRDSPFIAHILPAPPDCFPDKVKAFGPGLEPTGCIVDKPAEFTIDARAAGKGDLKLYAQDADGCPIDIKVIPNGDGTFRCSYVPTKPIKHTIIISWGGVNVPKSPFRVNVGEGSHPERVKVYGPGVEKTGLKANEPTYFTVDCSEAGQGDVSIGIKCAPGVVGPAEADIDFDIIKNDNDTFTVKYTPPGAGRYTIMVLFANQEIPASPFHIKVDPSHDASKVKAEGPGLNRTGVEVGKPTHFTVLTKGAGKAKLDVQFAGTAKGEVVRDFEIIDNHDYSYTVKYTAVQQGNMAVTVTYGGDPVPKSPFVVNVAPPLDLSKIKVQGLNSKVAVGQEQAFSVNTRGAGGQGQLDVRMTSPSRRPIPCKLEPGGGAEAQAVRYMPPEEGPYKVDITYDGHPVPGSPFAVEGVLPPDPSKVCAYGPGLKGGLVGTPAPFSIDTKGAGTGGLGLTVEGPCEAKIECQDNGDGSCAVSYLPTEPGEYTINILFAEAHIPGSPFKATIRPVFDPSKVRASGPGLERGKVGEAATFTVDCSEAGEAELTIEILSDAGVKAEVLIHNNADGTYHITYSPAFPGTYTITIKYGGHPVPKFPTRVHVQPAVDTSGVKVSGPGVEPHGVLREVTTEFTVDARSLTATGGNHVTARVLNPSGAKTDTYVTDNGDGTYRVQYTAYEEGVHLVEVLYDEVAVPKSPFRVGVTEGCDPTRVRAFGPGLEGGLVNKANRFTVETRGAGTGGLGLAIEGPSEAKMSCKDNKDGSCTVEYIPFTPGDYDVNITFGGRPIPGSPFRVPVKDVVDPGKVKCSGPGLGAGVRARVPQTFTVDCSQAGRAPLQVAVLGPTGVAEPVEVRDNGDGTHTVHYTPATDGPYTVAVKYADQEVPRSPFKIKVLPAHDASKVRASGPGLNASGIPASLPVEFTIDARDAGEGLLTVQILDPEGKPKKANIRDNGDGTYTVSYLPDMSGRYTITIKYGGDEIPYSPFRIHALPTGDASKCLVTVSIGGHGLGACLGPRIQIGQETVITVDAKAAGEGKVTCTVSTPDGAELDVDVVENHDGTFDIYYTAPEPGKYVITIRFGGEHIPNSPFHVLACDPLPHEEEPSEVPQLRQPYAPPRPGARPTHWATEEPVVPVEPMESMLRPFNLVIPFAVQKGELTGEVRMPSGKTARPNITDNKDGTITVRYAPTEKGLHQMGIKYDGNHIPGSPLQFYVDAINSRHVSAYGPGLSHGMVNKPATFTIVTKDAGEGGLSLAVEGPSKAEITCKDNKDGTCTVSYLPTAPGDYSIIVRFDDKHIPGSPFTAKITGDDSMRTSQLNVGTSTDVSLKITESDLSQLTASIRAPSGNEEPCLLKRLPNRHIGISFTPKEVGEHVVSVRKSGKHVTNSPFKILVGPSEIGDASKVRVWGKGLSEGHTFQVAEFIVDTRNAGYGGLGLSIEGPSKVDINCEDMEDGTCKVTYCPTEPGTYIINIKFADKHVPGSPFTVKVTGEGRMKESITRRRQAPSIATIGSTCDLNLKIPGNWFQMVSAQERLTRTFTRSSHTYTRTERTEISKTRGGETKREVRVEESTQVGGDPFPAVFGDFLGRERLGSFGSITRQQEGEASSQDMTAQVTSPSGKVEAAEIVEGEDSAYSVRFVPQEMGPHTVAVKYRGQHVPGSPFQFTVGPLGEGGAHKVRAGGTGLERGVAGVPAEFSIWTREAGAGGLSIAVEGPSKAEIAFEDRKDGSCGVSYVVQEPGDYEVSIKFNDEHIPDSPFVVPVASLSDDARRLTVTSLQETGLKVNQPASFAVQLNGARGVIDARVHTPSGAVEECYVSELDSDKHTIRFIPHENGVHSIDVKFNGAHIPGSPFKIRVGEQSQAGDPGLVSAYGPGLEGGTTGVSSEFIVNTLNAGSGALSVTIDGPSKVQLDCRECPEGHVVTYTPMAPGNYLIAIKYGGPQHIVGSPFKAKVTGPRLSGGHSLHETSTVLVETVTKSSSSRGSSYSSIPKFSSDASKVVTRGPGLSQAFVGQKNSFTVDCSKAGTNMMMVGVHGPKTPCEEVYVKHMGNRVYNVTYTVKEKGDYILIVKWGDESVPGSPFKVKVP
UniProt P31995: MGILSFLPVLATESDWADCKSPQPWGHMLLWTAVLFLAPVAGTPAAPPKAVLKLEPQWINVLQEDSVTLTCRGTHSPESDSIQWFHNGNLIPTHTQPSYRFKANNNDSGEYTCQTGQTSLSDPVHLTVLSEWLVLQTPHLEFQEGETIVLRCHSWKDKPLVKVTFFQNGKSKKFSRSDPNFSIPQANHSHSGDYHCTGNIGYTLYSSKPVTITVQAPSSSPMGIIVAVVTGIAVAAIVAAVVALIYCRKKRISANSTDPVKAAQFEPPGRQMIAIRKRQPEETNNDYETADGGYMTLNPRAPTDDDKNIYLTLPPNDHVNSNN
UniProt Q9Y421: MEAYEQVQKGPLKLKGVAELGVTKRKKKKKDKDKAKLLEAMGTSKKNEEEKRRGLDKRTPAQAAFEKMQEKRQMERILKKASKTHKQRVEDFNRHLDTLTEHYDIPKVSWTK
UniProt Q5JUQ0: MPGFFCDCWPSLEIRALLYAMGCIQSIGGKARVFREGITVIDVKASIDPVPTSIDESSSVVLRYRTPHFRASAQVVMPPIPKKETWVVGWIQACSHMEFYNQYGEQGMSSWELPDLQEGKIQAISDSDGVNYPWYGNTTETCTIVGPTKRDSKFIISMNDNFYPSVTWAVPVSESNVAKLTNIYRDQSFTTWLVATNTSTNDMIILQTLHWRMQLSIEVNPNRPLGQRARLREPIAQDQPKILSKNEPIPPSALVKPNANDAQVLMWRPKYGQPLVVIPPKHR
UniProt Q5T1M5: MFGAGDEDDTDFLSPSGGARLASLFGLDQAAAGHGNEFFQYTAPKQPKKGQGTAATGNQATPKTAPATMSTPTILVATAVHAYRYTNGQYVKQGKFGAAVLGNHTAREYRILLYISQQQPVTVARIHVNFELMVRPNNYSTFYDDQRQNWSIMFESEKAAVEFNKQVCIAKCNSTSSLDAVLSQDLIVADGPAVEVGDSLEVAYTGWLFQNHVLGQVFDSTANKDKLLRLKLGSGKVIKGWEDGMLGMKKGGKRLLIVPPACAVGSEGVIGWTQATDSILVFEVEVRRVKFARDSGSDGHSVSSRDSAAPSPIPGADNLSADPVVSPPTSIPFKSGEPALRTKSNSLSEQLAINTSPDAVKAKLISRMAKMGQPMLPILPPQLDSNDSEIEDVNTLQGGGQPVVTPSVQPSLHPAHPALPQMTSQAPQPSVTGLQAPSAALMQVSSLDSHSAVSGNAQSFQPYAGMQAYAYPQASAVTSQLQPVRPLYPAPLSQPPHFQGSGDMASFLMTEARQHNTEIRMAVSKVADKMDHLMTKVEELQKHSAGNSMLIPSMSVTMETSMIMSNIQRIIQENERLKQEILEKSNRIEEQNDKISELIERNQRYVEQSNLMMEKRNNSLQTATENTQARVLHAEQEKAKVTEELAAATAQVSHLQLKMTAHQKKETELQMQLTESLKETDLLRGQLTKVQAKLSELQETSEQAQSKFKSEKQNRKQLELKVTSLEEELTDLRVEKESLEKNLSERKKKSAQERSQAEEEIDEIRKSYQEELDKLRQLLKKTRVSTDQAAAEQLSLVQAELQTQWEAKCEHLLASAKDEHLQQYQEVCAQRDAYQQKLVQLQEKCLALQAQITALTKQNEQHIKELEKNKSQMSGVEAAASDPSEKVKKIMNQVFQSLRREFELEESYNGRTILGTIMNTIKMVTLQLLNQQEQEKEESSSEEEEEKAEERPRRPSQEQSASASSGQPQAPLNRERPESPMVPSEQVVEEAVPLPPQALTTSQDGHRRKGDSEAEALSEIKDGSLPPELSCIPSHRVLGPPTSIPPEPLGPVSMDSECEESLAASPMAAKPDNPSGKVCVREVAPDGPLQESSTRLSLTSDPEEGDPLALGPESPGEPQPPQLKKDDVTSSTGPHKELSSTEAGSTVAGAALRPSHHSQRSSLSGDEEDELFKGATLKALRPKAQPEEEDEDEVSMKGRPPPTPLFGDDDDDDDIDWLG

The targets below were run with Cc1cc(SCc2sc(-c3ccc(C(F)(F)F)cc3)nc2C)ccc1OCC(=O)O (assay: log2 fold change, soluble protein after heating vs DMSO (PISA); higher = thermal stabilisation; K562 cells, 10 uM, 30 min; active = over 0.2 and 3.5 SD of the protein, either way, in both replicates (recomputed)).
How it was run: (§1)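 Quantification of soluble protein used TMTpro 16plex LC-MS/MS, with channel sums equalised. Samples were the supernatant after 21,000xg for 90 min of pooled aliquots from K562 cells (2×10^6 cells/mL) treated with 10 μM compound for 30 min, heated for 3 min over 48°C-58°C, and extracted in PBS with 0.5% NP-40 at 4°C. Values, from duplicates, describe thermal stability against control samples on a log2 fold-change scale.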
For FBXO22 (UniProt Q8NEZ5), the log2 fold change was inactive: -0.021.
In the case of FNBP4 isoform 2 (UniProt Q8N3X1), the log2 fold change is reported as inactive: -0.045.
For FGFR1OP (UniProt O95684), the log2 fold change was inactive: 0.
With FCSK isoform 2 (UniProt Q8N0W3) the log2 fold change was inactive: 0.006.
FAM76B (UniProt Q5HYJ3) was tested, and the log2 fold change was inactive: 0.039.
For FLVCR1 (UniProt Q9Y5Y0), the log2 fold change was inactive: -0.15.
FAM98A (UniProt Q8NCA5) was tested, and the log2 fold change was inactive: 0.068.
For FERMT2 isoform 3 (UniProt Q96AC1), the log2 fold change was inactive: 0.048.
FN3K (UniProt Q9H479) was tested, and the log2 fold change was inactive: -0.002.
For FEM1B (UniProt Q9UK73), the log2 fold change was inactive: 0.024.
With FN1 isoform 1 (UniProt P02751) the log2 fold change was inactive: -0.144.
In the case of FN3KRP (UniProt Q9HA64), the log2 fold change is reported as inactive: -0.014.
With FIP1L1 (UniProt Q6UN15) the log2 fold change was inactive: -0.076.
With FLYWCH2 (UniProt Q96CP2) the log2 fold change was inactive: 0.009.
With FDX1 (UniProt P10109) the log2 fold change was inactive: 0.039.
With FLOT2 (UniProt Q14254) the log2 fold change was inactive: 0.117.
FAM98B (UniProt Q52LJ0) was tested, and the log2 fold change was inactive: 0.085.
With FLOT1 (UniProt O75955) the log2 fold change was inactive: 0.191.
With FBXO5 (UniProt Q9UKT4) the log2 fold change was inactive: -0.002.
In the case of FLT4 (UniProt P35916), the log2 fold change is reported as inactive: 0.003.
FLAD1 (UniProt Q8NFF5) was tested, and the log2 fold change was inactive: 0.035.
For FLII (UniProt Q13045), the log2 fold change was inactive: 0.018.
For FLNB isoform 8 (UniProt O75369), the log2 fold change was inactive: 0.039.
In the case of FLNC (UniProt Q14315), the log2 fold change is reported as inactive: 0.032.
FCGR2C (UniProt P31995) was tested, and the log2 fold change was inactive: -0.097.
For FKBP5 (UniProt Q13451), the log2 fold change was inactive: 0.129.
With FKBP2 (UniProt P26885) the log2 fold change was inactive: 0.042.
For FHL2 (UniProt Q14192), the log2 fold change was inactive: -0.065.
FAM210A (UniProt Q96ND0) was tested, and the log2 fold change was inactive: 0.016.
FAM32A (UniProt Q9Y421) was tested, and the log2 fold change was inactive: 0.
With FARSB (UniProt Q9NSD9) the log2 fold change was inactive: 0.053.
In the case of FAM78A (UniProt Q5JUQ0), the log2 fold change is reported as inactive: 0.011.
FKBP9 (UniProt O95302) was tested, and the log2 fold change was inactive: 0.039.
In the case of FAR1 (UniProt Q8WVX9), the log2 fold change is reported as inactive: 0.056.
With FBXO30 (UniProt Q8TB52) the log2 fold change was inactive: 0.007.
With FKBP15 (UniProt Q5T1M5) the log2 fold change was inactive: 0.085.
FBLN1 (UniProt P23142) was tested, and the log2 fold change was inactive: -0.192.

These targets were tested with Cc1ccc(-n2nc(C(C)(C)C)cc2NC(=O)Nc2ccc(OCCN3CCOCC3)c3ccccc23)cc1 [doramapimod] in the same assay as above.
How it was run: as §1
FBXO22 (UniProt Q8NEZ5) was tested, and the log2 fold change was inactive: -0.074.
With FNBP4 isoform 2 (UniProt Q8N3X1) the log2 fold change was inactive: -0.011.
With FGFR1OP (UniProt O95684) the log2 fold change was inactive: -0.056.
In the case of FCSK isoform 2 (UniProt Q8N0W3), the log2 fold change is reported as inactive: 0.031.
With FAM76B (UniProt Q5HYJ3) the log2 fold change was inactive: 0.123.
In the case of FLVCR1 (UniProt Q9Y5Y0), the log2 fold change is reported as inactive: 0.013.
FAM98A (UniProt Q8NCA5) was tested, and the log2 fold change was inactive: 0.215.
FERMT2 isoform 3 (UniProt Q96AC1) was tested, and the log2 fold change was inactive: 0.651.
For FN3K (UniProt Q9H479), the log2 fold change was inactive: -0.02.
With FEM1B (UniProt Q9UK73) the log2 fold change was inactive: 0.011.
In the case of FN1 isoform 1 (UniProt P02751), the log2 fold change is reported as inactive: -0.078.
With FN3KRP (UniProt Q9HA64) the log2 fold change was inactive: -0.025.
With FIP1L1 (UniProt Q6UN15) the log2 fold change was inactive: 0.006.
In the case of FLYWCH2 (UniProt Q96CP2), the log2 fold change is reported as inactive: -0.001.
In the case of FDX1 (UniProt P10109), the log2 fold change is reported as inactive: 0.001.
In the case of FLOT2 (UniProt Q14254), the log2 fold change is reported as inactive: 0.146.
With FAM98B (UniProt Q52LJ0) the log2 fold change was inactive: 0.024.
With FLOT1 (UniProt O75955) the log2 fold change was inactive: 0.12.
FBXO5 (UniProt Q9UKT4) was tested, and the log2 fold change was inactive: -0.004.
For FLT4 (UniProt P35916), the log2 fold change was inactive: -0.082.
FLAD1 (UniProt Q8NFF5) was tested, and the log2 fold change was inactive: -0.043.
In the case of FLII (UniProt Q13045), the log2 fold change is reported as inactive: -0.018.
For FLNB isoform 8 (UniProt O75369), the log2 fold change was inactive: -0.018.
In the case of FLNC (UniProt Q14315), the log2 fold change is reported as inactive: -0.008.
For FCGR2C (UniProt P31995), the log2 fold change was inactive: -0.018.
FKBP5 (UniProt Q13451) was tested, and the log2 fold change was inactive: 0.029.
FKBP2 (UniProt P26885) was tested, and the log2 fold change was inactive: -0.032.
With FHL2 (UniProt Q14192) the log2 fold change was inactive: -0.03.
FAM210A (UniProt Q96ND0) was tested, and the log2 fold change was inactive: -0.046.
In the case of FAM32A (UniProt Q9Y421), the log2 fold change is reported as inactive: -0.115.
FARSB (UniProt Q9NSD9) was tested, and the log2 fold change was inactive: -0.02.
For FAM78A (UniProt Q5JUQ0), the log2 fold change was inactive: 0.006.
For FKBP9 (UniProt O95302), the log2 fold change was inactive: 0.02.
FAR1 (UniProt Q8WVX9) was tested, and the log2 fold change was inactive: -0.003.
FBXO30 (UniProt Q8TB52) was tested, and the log2 fold change was inactive: -0.003.
FKBP15 (UniProt Q5T1M5) was tested, and the log2 fold change was inactive: 0.063.
For FBLN1 (UniProt P23142), the log2 fold change was inactive: -0.073.
